# Data: the supplement of paper PMC6411743
# ± gives the standard deviation of the averaged measurements. This is a selection; strong and weak results do not stand in their true shares.
# How the values were obtained:
# Assay in all cases: NP40-soluble protein abundance relative to vehicle (solubility fold change) (ratio); higher = more soluble protein in presence of AMP-PNP
# A0A0A6YY96|P48200 = target: T1, A0A0A6YY96|P48200 (UniProt P48200)
# T1 sequence (whole entry): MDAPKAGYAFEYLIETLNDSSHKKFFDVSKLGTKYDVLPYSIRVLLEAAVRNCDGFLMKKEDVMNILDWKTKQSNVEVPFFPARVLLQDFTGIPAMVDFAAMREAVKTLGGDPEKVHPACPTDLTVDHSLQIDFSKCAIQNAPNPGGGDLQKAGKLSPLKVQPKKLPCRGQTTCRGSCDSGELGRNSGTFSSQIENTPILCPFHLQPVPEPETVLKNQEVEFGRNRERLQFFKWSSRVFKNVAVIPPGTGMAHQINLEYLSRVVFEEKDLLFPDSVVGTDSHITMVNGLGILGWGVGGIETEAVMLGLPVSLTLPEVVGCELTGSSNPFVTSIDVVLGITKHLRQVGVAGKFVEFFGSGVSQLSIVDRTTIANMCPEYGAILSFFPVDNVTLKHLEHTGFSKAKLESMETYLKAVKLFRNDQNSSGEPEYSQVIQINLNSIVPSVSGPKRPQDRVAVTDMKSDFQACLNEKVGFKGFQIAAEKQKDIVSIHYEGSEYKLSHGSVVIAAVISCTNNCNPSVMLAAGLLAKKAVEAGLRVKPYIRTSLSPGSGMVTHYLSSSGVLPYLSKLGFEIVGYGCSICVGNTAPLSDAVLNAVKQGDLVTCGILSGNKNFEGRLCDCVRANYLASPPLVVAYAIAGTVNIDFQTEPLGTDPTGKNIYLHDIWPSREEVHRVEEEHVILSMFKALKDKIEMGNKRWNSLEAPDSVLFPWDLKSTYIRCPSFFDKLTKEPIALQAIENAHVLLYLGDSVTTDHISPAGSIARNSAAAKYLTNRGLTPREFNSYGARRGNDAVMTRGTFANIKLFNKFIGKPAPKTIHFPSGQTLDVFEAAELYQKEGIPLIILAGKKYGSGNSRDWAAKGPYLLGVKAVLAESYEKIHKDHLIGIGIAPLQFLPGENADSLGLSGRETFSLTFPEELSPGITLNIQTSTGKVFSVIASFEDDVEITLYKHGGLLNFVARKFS
# Method in brief: (§1)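 Eight concentrations, 0.1 to 10 mM, were tested on Jurkat crude lysate for 10 min at room temperature and then 3 min at 37 °C, in three independent experiments. The lysate was solubilised with 0.8% NP40 and benzonase, ultracentrifuged, and the supernatant TMT-labelled for LC-MS/MS. Each value is the fold change against the detergent-processed vehicle in its own replicate, from vsn-normalised intensities.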
# A0A0C4DFV0|Q9H469 = target: T2, A0A0C4DFV0|Q9H469 (UniProt Q9H469)
# T2 sequence (whole entry): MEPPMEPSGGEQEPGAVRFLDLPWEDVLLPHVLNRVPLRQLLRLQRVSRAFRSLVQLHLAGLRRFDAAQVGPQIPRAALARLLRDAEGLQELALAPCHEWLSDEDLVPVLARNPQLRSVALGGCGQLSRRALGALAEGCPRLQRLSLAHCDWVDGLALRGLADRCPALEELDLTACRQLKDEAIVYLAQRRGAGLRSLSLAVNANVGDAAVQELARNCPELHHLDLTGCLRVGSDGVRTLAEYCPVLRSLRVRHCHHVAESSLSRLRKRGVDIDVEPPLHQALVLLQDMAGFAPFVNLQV
# Method in brief: as §1
# A0A0C4DFX7|Q9H967 = target: T3, A0A0C4DFX7|Q9H967 (UniProt Q9H967)
# T3 sequence (whole entry): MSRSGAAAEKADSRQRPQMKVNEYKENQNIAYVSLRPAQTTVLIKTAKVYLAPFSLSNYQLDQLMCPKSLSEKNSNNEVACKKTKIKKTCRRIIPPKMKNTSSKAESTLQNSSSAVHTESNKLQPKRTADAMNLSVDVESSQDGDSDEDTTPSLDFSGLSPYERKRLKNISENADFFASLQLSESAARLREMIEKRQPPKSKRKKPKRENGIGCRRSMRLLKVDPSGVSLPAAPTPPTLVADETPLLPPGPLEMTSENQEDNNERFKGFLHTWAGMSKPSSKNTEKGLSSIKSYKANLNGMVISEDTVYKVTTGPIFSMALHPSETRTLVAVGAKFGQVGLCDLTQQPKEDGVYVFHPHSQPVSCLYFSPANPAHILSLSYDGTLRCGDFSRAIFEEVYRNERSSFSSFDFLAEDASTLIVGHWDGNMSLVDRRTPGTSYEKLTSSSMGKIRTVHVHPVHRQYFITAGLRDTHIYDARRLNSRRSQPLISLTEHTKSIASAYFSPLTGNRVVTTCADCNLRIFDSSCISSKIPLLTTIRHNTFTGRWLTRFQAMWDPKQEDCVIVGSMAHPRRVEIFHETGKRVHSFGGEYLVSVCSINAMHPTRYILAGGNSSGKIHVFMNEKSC
# Method in brief: as §1
# A0A0C4DG89|Q7L014 = target: T4, A0A0C4DG89|Q7L014 (UniProt Q7L014)
# T4 sequence (whole entry): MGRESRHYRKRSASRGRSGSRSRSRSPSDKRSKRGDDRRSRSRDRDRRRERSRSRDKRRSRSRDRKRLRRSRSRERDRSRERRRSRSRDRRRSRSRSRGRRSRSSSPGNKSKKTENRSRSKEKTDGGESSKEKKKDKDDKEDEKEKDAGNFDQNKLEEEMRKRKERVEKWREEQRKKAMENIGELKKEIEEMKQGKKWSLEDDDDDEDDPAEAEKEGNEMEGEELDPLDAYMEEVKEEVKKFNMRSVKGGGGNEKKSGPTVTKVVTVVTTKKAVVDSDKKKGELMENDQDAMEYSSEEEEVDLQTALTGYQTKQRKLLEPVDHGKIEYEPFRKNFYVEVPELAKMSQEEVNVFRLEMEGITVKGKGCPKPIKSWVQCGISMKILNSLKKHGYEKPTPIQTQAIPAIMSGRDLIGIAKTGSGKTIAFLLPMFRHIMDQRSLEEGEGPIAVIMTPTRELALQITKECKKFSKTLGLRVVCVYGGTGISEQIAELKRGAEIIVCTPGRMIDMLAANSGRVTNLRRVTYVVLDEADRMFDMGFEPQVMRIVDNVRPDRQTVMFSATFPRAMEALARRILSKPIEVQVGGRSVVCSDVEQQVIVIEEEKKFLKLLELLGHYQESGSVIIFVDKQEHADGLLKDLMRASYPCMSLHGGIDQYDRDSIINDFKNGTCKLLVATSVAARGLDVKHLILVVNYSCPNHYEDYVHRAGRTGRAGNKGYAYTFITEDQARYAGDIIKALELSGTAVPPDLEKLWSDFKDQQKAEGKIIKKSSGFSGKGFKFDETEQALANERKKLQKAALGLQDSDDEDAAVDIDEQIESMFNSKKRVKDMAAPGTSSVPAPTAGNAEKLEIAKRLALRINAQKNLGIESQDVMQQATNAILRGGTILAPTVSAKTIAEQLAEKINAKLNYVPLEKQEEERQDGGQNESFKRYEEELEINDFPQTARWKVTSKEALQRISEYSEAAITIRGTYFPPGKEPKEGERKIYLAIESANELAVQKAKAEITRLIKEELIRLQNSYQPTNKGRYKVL
# Method in brief: as §1
# [1] = target: T5, A0A0C4DGS5|B7ZC06 and related entries (UniProt Q08379)
# T5 sequence (whole entry): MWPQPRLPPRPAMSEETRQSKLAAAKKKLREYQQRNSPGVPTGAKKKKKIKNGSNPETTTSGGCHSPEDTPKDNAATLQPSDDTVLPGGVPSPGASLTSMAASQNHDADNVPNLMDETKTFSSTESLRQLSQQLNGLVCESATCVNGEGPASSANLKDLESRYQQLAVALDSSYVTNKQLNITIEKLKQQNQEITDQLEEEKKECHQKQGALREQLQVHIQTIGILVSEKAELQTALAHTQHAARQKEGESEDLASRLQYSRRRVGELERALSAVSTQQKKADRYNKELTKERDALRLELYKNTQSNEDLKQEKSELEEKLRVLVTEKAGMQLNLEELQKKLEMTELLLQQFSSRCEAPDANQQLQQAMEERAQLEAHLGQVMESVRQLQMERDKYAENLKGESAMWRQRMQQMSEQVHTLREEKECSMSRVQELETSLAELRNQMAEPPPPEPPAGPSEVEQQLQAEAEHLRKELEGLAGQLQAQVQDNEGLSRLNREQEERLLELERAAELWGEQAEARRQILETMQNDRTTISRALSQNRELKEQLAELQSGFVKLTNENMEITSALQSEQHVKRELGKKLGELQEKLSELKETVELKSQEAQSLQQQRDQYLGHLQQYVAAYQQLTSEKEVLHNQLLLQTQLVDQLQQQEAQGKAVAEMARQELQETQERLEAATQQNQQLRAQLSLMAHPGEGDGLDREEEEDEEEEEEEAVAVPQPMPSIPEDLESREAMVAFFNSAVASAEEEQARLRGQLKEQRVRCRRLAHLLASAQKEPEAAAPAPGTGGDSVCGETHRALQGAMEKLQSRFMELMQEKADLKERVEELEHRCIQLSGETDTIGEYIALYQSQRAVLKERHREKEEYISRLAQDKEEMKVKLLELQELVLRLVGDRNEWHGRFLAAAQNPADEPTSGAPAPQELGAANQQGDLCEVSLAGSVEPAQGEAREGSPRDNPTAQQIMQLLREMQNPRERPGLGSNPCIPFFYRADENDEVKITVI
# Method in brief: as §1
smiles,measurement,setting,value
Nc1ncnc2c1ncn2[C@@H]1O[C@H](COP(=O)(O)OP(=O)(O)NP(=O)(O)O)[C@@H](O)[C@H]1O [adenylyl imidodiphosphate],NP40-soluble protein abundance,A0A0A6YY96|P48200; concentration: 1mM,1.01 ± 0.063
same,NP40-soluble protein abundance,A0A0A6YY96|P48200; concentration: 2mM,1 ± 0.047
same,NP40-soluble protein abundance,A0A0A6YY96|P48200; concentration: 4mM,0.971 ± 0.052
same,NP40-soluble protein abundance,A0A0A6YY96|P48200; concentration: 6mM,1 ± 0.011
same,NP40-soluble protein abundance,A0A0A6YY96|P48200; concentration: 8mM,0.998 ± 0.023
same,NP40-soluble protein abundance,A0A0A6YY96|P48200; concentration: 10mM,0.974 ± 0.044
same,NP40-soluble protein abundance,A0A0C4DFV0|Q9H469; concentration: 1mM,0.981 ± 0.025
same,NP40-soluble protein abundance,A0A0C4DFV0|Q9H469; concentration: 2mM,0.951 ± 0.032
same,NP40-soluble protein abundance,A0A0C4DFV0|Q9H469; concentration: 4mM,0.979 ± 0.023
same,NP40-soluble protein abundance,A0A0C4DFV0|Q9H469; concentration: 6mM,0.972 ± 0.066
same,NP40-soluble protein abundance,A0A0C4DFV0|Q9H469; concentration: 8mM,0.952 ± 0.019
same,NP40-soluble protein abundance,A0A0C4DFV0|Q9H469; concentration: 10mM,0.9788 ± 0.0055
same,NP40-soluble protein abundance,A0A0C4DFX7|Q9H967; concentration: 1mM,0.993 ± 0.03
same,NP40-soluble protein abundance,A0A0C4DFX7|Q9H967; concentration: 2mM,0.995 ± 0.019
same,NP40-soluble protein abundance,A0A0C4DFX7|Q9H967; concentration: 4mM,1.05 ± 0.04
same,NP40-soluble protein abundance,A0A0C4DFX7|Q9H967; concentration: 6mM,1.071 ± 0.002
same,NP40-soluble protein abundance,A0A0C4DFX7|Q9H967; concentration: 8mM,1.07 ± 0.012
same,NP40-soluble protein abundance,A0A0C4DFX7|Q9H967; concentration: 10mM,1.09 ± 0.046
same,NP40-soluble protein abundance,A0A0C4DG89|Q7L014; concentration: 1mM,0.9721 ± 0.0097
same,NP40-soluble protein abundance,A0A0C4DG89|Q7L014; concentration: 2mM,0.942 ± 0.026
same,NP40-soluble protein abundance,A0A0C4DG89|Q7L014; concentration: 4mM,0.912 ± 0.032
same,NP40-soluble protein abundance,A0A0C4DG89|Q7L014; concentration: 6mM,0.928 ± 0.021
same,NP40-soluble protein abundance,A0A0C4DG89|Q7L014; concentration: 8mM,0.938 ± 0.045
same,NP40-soluble protein abundance,A0A0C4DG89|Q7L014; concentration: 10mM,0.975 ± 0.045
same,NP40-soluble protein abundance,[1]; concentration: 1mM,1.02 ± 0.032
same,NP40-soluble protein abundance,[1]; concentration: 2mM,1.08 ± 0.064
same,NP40-soluble protein abundance,[1]; concentration: 4mM,1.03 ± 0.019

# Some of the entries above, set out differently:
smiles	measurement	setting	value
Nc1ncnc2c1ncn2[C@@H]1O[C@H](COP(=O)(O)OP(=O)(O)NP(=O)(O)O)[C@@H](O)[C@H]1O [adenylyl imidodiphosphate]	NP40-soluble protein abundance	A0A0C4DFX7|Q9H967; concentration: 8mM	1.07 ± 0.012
same	NP40-soluble protein abundance	A0A0C4DFX7|Q9H967; concentration: 10mM	1.09 ± 0.046
same	NP40-soluble protein abundance	A0A0C4DG89|Q7L014; concentration: 1mM	0.9721 ± 0.0097
same	NP40-soluble protein abundance	A0A0C4DG89|Q7L014; concentration: 2mM	0.942 ± 0.026
same	NP40-soluble protein abundance	A0A0C4DG89|Q7L014; concentration: 4mM	0.912 ± 0.032
